Our source for the binding signal values is article PMC7819943, “Rice protein-binding microarrays: a tool to detect cis-acting elements near promoter regions in rice”.

Chains of the proteins cited; added tags and fusions are not shown.
UniProt Q0JBA9, entry or part of it: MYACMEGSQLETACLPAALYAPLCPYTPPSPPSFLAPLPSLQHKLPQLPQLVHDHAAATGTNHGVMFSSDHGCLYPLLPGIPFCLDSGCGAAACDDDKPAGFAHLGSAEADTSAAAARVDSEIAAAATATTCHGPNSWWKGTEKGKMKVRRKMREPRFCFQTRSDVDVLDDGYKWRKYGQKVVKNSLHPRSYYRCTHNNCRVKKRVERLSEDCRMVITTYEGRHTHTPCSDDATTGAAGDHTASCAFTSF

The other results are listed elsewhere or left out.

The target in the test is OsWRKY34 (Oryza sativa, UniProt Q0JBA9 1-250). Description: protein-binding microarray (RPBM); PBS, 2% BSA, 51.3 ng/ul salmon testes DNA, 50 uM zinc acetate, 200 nM TF, 25 C, 1 h; high values mean tight binding. As to conditions: protein: recombinant; tags: N-terminal polyhistidine and DsRed monomer fusion (pET32a); label: CyDye5-dUTP incorporated in the synthesized complementary strand; 3' TTTTT single-stranded linker to array surface; dsDNA, one strand shown. The method in brief: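 In PBS with 2% BSA, salmon testes DNA and 50 µM zinc acetate, 200 nM protein was incubated on a custom Agilent array at 25 °C for 1 h and then washed off. The array had been made double-stranded by primer extension with Cy5-dUTP and blocked with 2% BSA. The proteins were transcription factors fused N-terminally to polyhistidine and DsRed, expressed in E. coli BL21-CodonPlus and purified on Ni–NTA. The binding signal is per-feature fluorescence intensity (arbitrary units) from an Axon 4000B scanner.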
“TTAATGTGTGTTCCTGTTGTGGTCTTGTGGATGGTGGATACGGAGTCACCTAGTGCAG”: the binding signal was 11800 fluorescence intensity (a.u.).

Regarding “GTTTGTTTTTGAAAATATATATCTGTATTTGAGTAGGGTTCGGAGTCACCTAGTGCAG”, the binding signal is 9630 fluorescence intensity (a.u.).

As for “GATCCAAGAGTGGAGAAGGAGAGGGGTGGGGAGCCGGCGACGGAGTCACCTAGTGCAG”, the binding signal was 9460 fluorescence intensity (a.u.).

Take “ACCAAATAGAAATATTTTCCGCGAGTTTTTACTTTTCATACGGAGTCACCTAGTGCAG”: the binding signal was 9970 fluorescence intensity (a.u.).

Turning to “CGCCTCCTACCTCTTGCTGCAGCGCACGGCGCCGCGCCGTCGGAGTCACCTAGTGCAG”, the binding signal was 8910 fluorescence intensity (a.u.).

For the sequence “GTACCAATTTTTGAAGAAAAAATTCAGCTGTCACATTGATCGGAGTCACCTAGTGCAG”, the binding signal was 8170 fluorescence intensity (a.u.).

“GGCCAATCTGCCGGATATTCGCAGCCATTTACGCTTTCCACGGAGTCACCTAGTGCAG”: the binding signal was 12900 fluorescence intensity (a.u.).

As to “GCCAAGTCTGGTTAACACATTATTTTCCTTTGTAATTGGTCGGAGTCACCTAGTGCAG”, the binding signal is 9250 fluorescence intensity (a.u.).

For the sequence “TTCGACGCCCAGCGCTGTCTCATCCCCTCCCCGCCAAAACCGGAGTCACCTAGTGCAG”, the binding signal was 8090 fluorescence intensity (a.u.).

As for “CATAATATAAGATTTTTTTAGTATTGCTCACATCTATTCACGGAGTCACCTAGTGCAG”, the binding signal was 8230 fluorescence intensity (a.u.).

As for “TTCTTACTCCTATATACTTTCAAATGTTCCAATGACTTGGCGGAGTCACCTAGTGCAG”, the binding signal was 8930 fluorescence intensity (a.u.).

In the case of “CCCTGAACTTCCGCTTGATTCTTCCTGGACCTACGCTTTCCGGAGTCACCTAGTGCAG”, the binding signal was 10200 fluorescence intensity (a.u.).

Regarding “GGGGCCATTTTCGTTTTTGCCACATCAACTCGAGTAGACCCGGAGTCACCTAGTGCAG”, the binding signal was 8870 fluorescence intensity (a.u.).

With “GCACATAAATGATACACTCTTATAAGTCGTTTTACTTTTTCGGAGTCACCTAGTGCAG”, the binding signal was 11600 fluorescence intensity (a.u.).

Turning to “GACCGCCGCCGCTTGAGCTGACCTGACCCCGAGCCGAGCCCGGAGTCACCTAGTGCAG”, the binding signal is 8250 fluorescence intensity (a.u.).

Take “CTCCTCCACGCCTCCGCCTCCGCCTCCGCCTCCACGACGTCGGAGTCACCTAGTGCAG”: the binding signal was 10600 fluorescence intensity (a.u.).

On to “GGCGGCGGCGGCGGGGCGGCGTGGCGCCGAGGGAGGGGAACGGAGTCACCTAGTGCAG”, for which the binding signal was 12500 fluorescence intensity (a.u.).

“TAGTGACCTAGTCGATGCGATCCTCCATCGGTTCCCTTCTCGGAGTCACCTAGTGCAG”: the binding signal was 8200 fluorescence intensity (a.u.).

“CTTCTGCTTGGTGTGTTGTGTGTTTTACCTTGAGTTATCTCGGAGTCACCTAGTGCAG”: the binding signal is 8480 fluorescence intensity (a.u.).

With “TGACGGCGGGCGGCGGCGGGAGGGAGGGTAGAGGTAGAGCCGGAGTCACCTAGTGCAG”, the binding signal is 9950 fluorescence intensity (a.u.).

Turning to “GCCCGCCTTTCAAACCCACACTGTTCATGTCTTCTTGTTCCGGAGTCACCTAGTGCAG”, the binding signal is 10400 fluorescence intensity (a.u.).

Regarding “CGAGGTCAGCGCCCAACTACTACTCCTCGTCATTTTGGTTCGGAGTCACCTAGTGCAG”, the binding signal was 13300 fluorescence intensity (a.u.).

In the case of “GTCCAAGTTTCTTTGTTCTTTTGCGCCTTGCACTGCAGCACGGAGTCACCTAGTGCAG”, the binding signal was 13900 fluorescence intensity (a.u.).

On to “ACGCAAACTGCATAATTAGTTTTTTTATGTTCAATACTTCCGGAGTCACCTAGTGCAG”, for which the binding signal is 9430 fluorescence intensity (a.u.).

“AACCCTACTTTCCGTGTCCAATATTTAACCGTCCGTCTTACGGAGTCACCTAGTGCAG”: the binding signal is 11500 fluorescence intensity (a.u.).

With “GCCCCACCGCGTCGGCCGTCGCGTAGCGGCCGGCCCATATCGGAGTCACCTAGTGCAG”, the binding signal is 9550 fluorescence intensity (a.u.).

Regarding “CCTCCGCCTCATCAGTGCTGCCACCACTACCGCAGTTGCTCGGAGTCACCTAGTGCAG”, the binding signal is 8950 fluorescence intensity (a.u.).

For “TGGTTTGATAGTTTCTCATATCTTCGTATCGTTATTAAGACGGAGTCACCTAGTGCAG”, the binding signal was 8180 fluorescence intensity (a.u.).

On to “TCACCTAGATATTACCTATACATTCGTCAACAAATTTTCTCGGAGTCACCTAGTGCAG”, for which the binding signal was 8330 fluorescence intensity (a.u.).

Take “AAGTGTTTAGGCCTGTTTAGTTCGCGAAAAAAAAAATTTTCGGAGTCACCTAGTGCAG”: the binding signal is 8030 fluorescence intensity (a.u.).

As for “GTCGACACCTATTTGCTGTTTTGTGTAGTAGTGAAAATTTCGGAGTCACCTAGTGCAG”, the binding signal is 8390 fluorescence intensity (a.u.).

Regarding “TGCCCACTTCTATACATATTATGTCCTTTTTTTCACATGTCGGAGTCACCTAGTGCAG”, the binding signal was 8160 fluorescence intensity (a.u.).

Consider “AGTTGATCGCGGTCAAATCGTCACGTTAGTTGAACCCGGTCGGAGTCACCTAGTGCAG”, for which the binding signal is 8260 fluorescence intensity (a.u.).

Regarding “GATCAGGTCCTTCTTAACTTTGCCATCTAGCTTTATGGACCGGAGTCACCTAGTGCAG”, the binding signal was 8060 fluorescence intensity (a.u.).

Take “GCATGACGTCGCCCGTGTCACTTCGCTCTGAGAGCCCTACCGGAGTCACCTAGTGCAG”: the binding signal is 9580 fluorescence intensity (a.u.).

“AACGCACATGTAAGTTACCACCTCTTCTTCTTCATCTACTCGGAGTCACCTAGTGCAG”: the binding signal is 9400 fluorescence intensity (a.u.).

In the case of “CATTTTGTAATTTGCCCTTGAACATGTGTTGTTACAATTTCGGAGTCACCTAGTGCAG”, the binding signal was 8980 fluorescence intensity (a.u.).

Turning to “CTATTTTGCTATCTAGGTCATGCATGTTATTTTTTCTTCTCGGAGTCACCTAGTGCAG”, the binding signal is 10300 fluorescence intensity (a.u.).

In the case of “CATCGCTCCATCTCATTTTCATTGTTCATCTGTTTGCATTCGGAGTCACCTAGTGCAG”, the binding signal was 8730 fluorescence intensity (a.u.).

Take “ATATCTCCCTTTTTTTTTTGCGGTTTCGCCATGGCTTTCTCGGAGTCACCTAGTGCAG”: the binding signal is 10600 fluorescence intensity (a.u.).

For “GGTTTTGTTAGTTGAGGGACGTCTGGTATCTGGTTTCAGGCGGAGTCACCTAGTGCAG”, the binding signal is 8800 fluorescence intensity (a.u.).

“GCAATATGTTTGAGATCCTAAGAAATCCGTTGACCGGATTCGGAGTCACCTAGTGCAG”: the binding signal was 12300 fluorescence intensity (a.u.).
